Among all 52,000 sequences or so, about 210 (0.4%) were called active.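 The calls were made as follows: active = gene whose silencing raises cell survival under the drug, median off-target-corrected z-score across its silencing RNAs 2 or more; inactive = the rest.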 The list shows a part of the results.

This assay in a line: Resistance to Poly (ADP-Ribose) Polymerase inhibitor: Gene Identification via Genome-wide siRNA Screen. To be noted: mouse BRCA2 R2336H ES cells, olaparib, CellTiter-Glo viability; stronger effect = higher value. The gist of the method: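 Mouse BRCA2 R2336H ES cells were reverse-transfected with siRNA (20 nM final), treated at 48 h with 500 nM olaparib, and read by CellTiter-Glo after 72 h. Scores: MAD-based z per siRNA, median per gene, seed off-target correction.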
On to GGAAUUCAUCUUACAUUCCTT against Acox3, for which the z-score was inactive: -0.474.

With GGCUGAAAAUGGGAAGCUUTT against MGC68323, the z-score was inactive: 1.39.

Regarding GGCUCUCUAGAUUCAAAAATT against Lars2, the z-score was inactive: 0.725.

Take GCAAGAACUGACUUUCCUATT against Snn: the z-score is inactive: -0.772.

As for GCACCAAAAUACACGAAAGTT against AW456874, the z-score was inactive: -0.00934.

As for GGAGAUGAAGAAGAUUCAATT against Pura, the z-score was inactive: 1.85.

On to GCUACCUUCAGACAAGCACTT against Prss32, for which the z-score is inactive: 0.574.

GGUCUCUGAACUGAUCCGUTT against Cyp7a1: the z-score was inactive: -0.0222.

Turning to “GGAUUGAAAUGUGUAAAACTT against 1700010C24Rik”, the z-score was inactive: -0.596.

Turning to GGUAAAUUGAGAGAAUAACTT against Tpd52, the z-score was inactive: 0.626.

In the case of “GCAAGUCUGGAUGGAUGAGTT against 1190005I06Rik”, the z-score is inactive: 0.0823.

For the sequence GGAUGAGUUCCUUUUACUATT against Cntnap4, the z-score was inactive: 0.0699.

For “GGAUUUGUUGGAAAUUGGATT against C030032C09Rik”, the z-score was inactive: -0.469.

Take GGACCAACAAGUUCAUCAATT against Arhgap10: the z-score is inactive: -1.93.

As to GGUAACAGAAUACCUGUCCTT against Hapln4, the z-score was inactive: 0.144.

As for GGAGAAUCUUCAACACUGGTT against Adprh, the z-score was inactive: 0.333.

With “CCAAAGUCUGUUAAUGGGUTT against 4921517D22Rik”, the z-score was inactive: 0.998.

As for GGAGCGUAGAUAACUUAUCTT against Ssfa2, the z-score was inactive: 0.264.

Take GGCAAGGUCUUGGAUGUGATT against Mx1: the z-score is inactive: 0.154.

In the case of GGACCUCACUGAGACCUUATT against Anxa8, the z-score was inactive: -2.55.

With GGUGAAAAGUCAAUUUUACTT against Neurog1, the z-score is inactive: 2.03.

For CGACUUCCAGUUUGUGCAGTT against Dpp9, the z-score was inactive: 0.0443.

As for GGGCCAUCUGUACUAUGAUTT against Tgm4, the z-score is inactive: -0.339.

For GCUUUAUGCCAGUUGUCAUTT against Slc35f1, the z-score was inactive: 0.313.

As to GGUGCUUUUAGUCUAGCUATT against Pcdhac1, the z-score was inactive: 0.0985.

In the case of CGUGGAGGUAUGCACACGUTT against Ndrl, the z-score was inactive: 1.34.

On to “GGCAGCUGAUUUUUGAUGATT against A430081C19Rik”, for which the z-score is inactive: 0.647.

For the sequence CCAUUUGAGGUAUUGGUAUTT against Acadsb, the z-score was inactive: -1.38.

In the case of “GGAAAGAAAAAUGAAGCUUTT against 2010200O16Rik”, the z-score was inactive: 0.909.

Consider AACUUAUGGUUGGUUGUCGTT against Marveld3, for which the z-score was inactive: -0.299.

For the sequence CGCACCUCCAGAUCAAAAGTT against Ucn3, the z-score was inactive: -0.0913.

CCCAGUGAAUCUAAGAAAATT against Zfp260: the z-score was inactive: 0.0587.

For the sequence “GGAUGUGGAGUCACUGAUGTT against 1810060J02Rik”, the z-score was inactive: -0.0172.

For the sequence GCACCAAAUUUUGUGCUUUTT against Olfr395, the z-score was inactive: 0.844.

As to GCAGUAAAUGCGAGCAGGATT against Hoxb8, the z-score is inactive: -1.29.

Take “GGCUGAGAACAAUAUGUAUTT against 2610001E17Rik”: the z-score is inactive: 0.117.

For GCGACAAAGCUCGUUAUGATT against Hmgb2, the z-score was inactive: 1.

Turning to “CGAAUCCUUAGUUGAAGAATT against 5330408N05Rik”, the z-score was inactive: -1.29.

For GGAAGUGGAACAGGACGUATT against Caps2, the z-score was inactive: -1.12.

In the case of GGGCAAUCAAGAUAACAAATT against Stk35, the z-score was inactive: 0.0479.

In the case of CCCUGGUUAUCACAGACAATT against Rpl38, the z-score was inactive: -2.41.

With “GCUGGGAAAGCAGAAUCUATT against 0610009B22Rik”, the z-score was inactive: -0.761.

Consider CCAAUACCUGCAAGACCUGTT against LOC234374, for which the z-score is inactive: -1.89.

With GGAAAAGGAUGAUUAUGAATT against Son, the z-score was inactive: -2.49.

With CCCAUGAUAAUGAAUUAGCTT against Olfr378, the z-score was inactive: 0.948.

On to GCUCAGCAAUACUUCCUACTT against Itgal, for which the z-score was inactive: 1.25.

Turning to GGAAGUGGAAAAAGUUUAGTT against Brip1, the z-score was inactive: 1.47.

As for UAGUCAUCUUCACUCUCCUTT against Olfr1249, the z-score was inactive: -0.733.

On to GGGCCUAUGCUUACAAACGTT against Pkp3, for which the z-score is inactive: 0.505.

In the case of CGGACACAUUGACUGAAUATT against Lphn1, the z-score is inactive: 0.438.

Regarding “GGCUGUGCAGUCUACAAUCTT against 1110014D18Rik”, the z-score is inactive: 0.36.

Consider CGGACAUUGUUCUGUUUUCTT against Por, for which the z-score was inactive: 1.14.

For the sequence “CCUAGAGACCCAUUCUCUATT against 2210409E12Rik”, the z-score is inactive: 0.0739.

For GGCCAAACAGUUAUCUGAATT against AI182371, the z-score is inactive: -0.487.

Turning to “CCACGAGUGAAUUAUAAUCTT against 6820416H06Rik”, the z-score is inactive: -0.242.

CGGUAAUCUUAUGACAACUTT against Gpc6: the z-score was inactive: 0.181.

For the sequence “CCUGGUAUAGAGUGAAAUCTT against 4930522H14Rik”, the z-score was inactive: -0.283.

On to “GGUUGGAAAUGAAAUCAAUTT against D14Ertd171e”, for which the z-score was inactive: -0.596.

On to GGCUUAUUGGAAGAGGACGTT against Ier5, for which the z-score was inactive: -0.191.

On to GGAUAAGAUCCGACUAUUCTT against Evc2, for which the z-score is inactive: 0.108.

For the sequence GGAACACACUAAAAUUCGATT against Cyp17a1, the z-score was inactive: 0.12.

On to GCCUCAUCGUUGCUGACUATT against Pde3b, for which the z-score was inactive: 2.31.

On to GGUAACUGUGGACUUAUCUTT against Olfr665, for which the z-score is inactive: -0.67.

Consider GCUUUUAAGAUCUCCCUCCTT against Gtf2h3, for which the z-score is inactive: 1.14.

Take GGUCGAACAUUUAAACUCUTT against Ifit3: the z-score was inactive: -1.59.

Consider GGCUGAGAACAUCAAAAAATT against Folh1, for which the z-score was inactive: -0.274.

For the origin of these results see PubChem BioAssay AID1347423 (Functional Genomics Laboratory (NCATS/FGL), 2020).
